# Data from PubChem BioAssay AID504842 (National Center for Advancing Translational Sciences (NCATS), 2011).
# The campaign covered roughly 330,000 compounds. About 100 (0.03%) were called active. Inconclusive means that the source gave no clear call. Such entries were picked first, then a sample of the others. The call rests on the fitted dose curve; in most records, active means well fitted inhibition curve with a large enough effect; inconclusive means small, poorly fitted or top-dose-only effect; inactive means flat fitted curve, though single readings scatter. Where the call is inconclusive, the potency comes from a doubtful curve fit.
# Test system: Chaperonin Mm-Cpn (Methanococcus maripaludis)
# Test: Inhibitors of TCP-1 ring complex (TRiC) of Methanococcus maripaludis (MmCpn): qHTS; further: nearly all actives have a fitted effect of over 80% in size;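 on potency: enzyme at 25 nM with ATP substrate at 10 µM during the reaction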
# Settings: purified Mm-Cpn ATPase, ADP Transcreener TR-FRET; series mostly up to 76.9 µM; activity, negative = inhibition: at the top concentration
# Outline: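 25 nM Mm-CPN + cpd, 10 min 37°C; + 10 uM ATP, 30 min 37°C; buffer 30 mM Tris pH 7.4, 100 mM KCl, 5 mM MgCl2, 1 mM DTT; Transcreener ADP HTRF detection 30 min RT.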
# On the % scale 0 is the no-effect control and ±100 the full control effect; potency means the concentration at half of the fitted maximal effect.
SMILES,"activity, negative = inhibition",Potency
c1ccc(OCCOCCN2CCN(C(c3ccccc3)c3ccccc3)CC2)cc1,inactive: 2.17%,–
O=C(CCc1c[nH]c2ccccc12)NCCc1ccc2c(c1)OCCO2,–,"inconclusive: 79.4 µM [inhibitor, single point]"
COc1ccc2cc(C(=O)N3CCN(c4ccccc4OC)CC3)[nH]c2c1,inactive: -1.57%,–
Cc1ccc(C2OC34CCCCCC3C(C#N)(C(=N)O4)C2(C#N)C#N)cc1 (centres undefined),inactive: -0.0946%,–
S=c1[nH]cnc2sc(Nc3ccccc3)nc12,–,"inconclusive: 56.2 µM [inhibitor, single point]"
CC(C)NC(=S)N/N=C1\CCCCc2ccccc21,inactive: -0.779%,–
NC(=O)Nc1ccc(C(=O)OCC(=O)Nc2cccc(S(=O)(=O)NC3=NCCCCC3)c2)cc1,–,"inconclusive: 11.2 µM [inhibitor, single point]"
Cc1cccc(N2CCN(C(=O)C3CCN(c4ncnc5c4nc4n5CCCCC4)CC3)CC2)c1C,inactive: -0.412%,–
O=C1c2cccc([N+](=O)[O-])c2C(=O)N1c1cccnc1,inactive: -1.35%,–
Cc1nc(SCc2nc3ccc(C(F)(F)F)cc3[nH]2)c2oc3ccccc3c2n1,–,"inconclusive: 200 µM [inhibitor, partial curve, poor fit]"
O=C(Nc1nc2c(s1)CN(Cc1ccccc1)CC2)c1c(F)cccc1F,–,"inconclusive: 89.1 µM [inhibitor, single point]"
NC(=O)CC(NC(=O)Cc1ccc(Br)cc1)c1ccc(NCCc2ccccc2F)c([N+](=O)[O-])c1 (centres undefined),–,"inconclusive: 79.4 µM [inhibitor, single point]"
Brc1ccc(-c2nc3ccccc3s2)s1,–,active: 39.8 µM
COC(=O)c1nn(-c2ccccc2)c(Sc2ccccc2)c1/C=N/O,inactive: -2.74%,–
O=C(CN1C2=NCCCN2c2ccccc21)c1ccc([N+](=O)[O-])cc1,inactive: -0.513%,–
COCc1cc(OC)nc(-c2csc(C)n2)n1,inactive: 0.674%,–
CC(SC#N)C(=O)C12CC3CC(CC(C3)C1)C2 (centres undefined),inactive: -13.7%,–
OCCNCCSc1ccc(Cl)cc1,–,"inconclusive: 63.1 µM [inhibitor, single point]"
Cc1ccc(S(=O)(=O)NCc2ccc(C(=O)NCCN(Cc3ccccc3)C(C)C)cc2)cc1,inactive: 1.4%,–
CCc1ccc(NC(=O)N(CCCN2CCOCC2)C(C)c2cc3cccc(OC)c3o2)cc1 (centres undefined),–,"inconclusive: 11.2 µM [inhibitor, single point]"
COC(=O)[C@H](CC(C)C)NC(=O)Nc1ccc(S(N)(=O)=O)cc1,inactive: 0.952%,–
CCOC(=O)C1=C(CSc2nnnn2C)N(C)C(=O)NC1c1ccccc1 (centres undefined),inactive: -0.436%,–
Cc1cc(N(CN2CCCC2=O)C(=O)c2ccccc2)no1,–,"inconclusive: 100 µM [inhibitor, single point]"

# Compounds shown so far that have an NH in an aromatic ring, in the order listed:
SMILES,"activity, negative = inhibition",Potency
O=C(CCc1c[nH]c2ccccc12)NCCc1ccc2c(c1)OCCO2,–,"inconclusive: 79.4 µM [inhibitor, single point]"
COc1ccc2cc(C(=O)N3CCN(c4ccccc4OC)CC3)[nH]c2c1,inactive: -1.57%,–
S=c1[nH]cnc2sc(Nc3ccccc3)nc12,–,"inconclusive: 56.2 µM [inhibitor, single point]"
Cc1nc(SCc2nc3ccc(C(F)(F)F)cc3[nH]2)c2oc3ccccc3c2n1,–,"inconclusive: 200 µM [inhibitor, partial curve, poor fit]"

# More entries follow.

SMILES,"activity, negative = inhibition",Potency
O=C(CCCC1=NS(=O)(=O)c2ccccc2N1)N1CCN(c2ccccc2)CC1,–,"inconclusive: 11.2 µM [inhibitor, single point]"
Cc1cc(C(=O)Cn2nc(C(=O)O)c3ccccc3c2=O)c(C)n1-c1ccccc1,–,"inconclusive: 17.8 µM [inhibitor, single point]"
COc1cc(OC)cc(-c2c(-c3cccs3)c3cc(-c4cccc5[nH]ccc45)ccc3n2C)c1,–,"inconclusive: 63.1 µM [inhibitor, partial curve, poor fit]"
CCn1c(SCc2ccc(F)cc2)nc2c(c1=O)SCC2,inactive: 1.16%,–
Cc1ccc(NC2c3ncccc3C(=O)N2Cc2cccs2)cc1 (centres undefined),–,"inconclusive: 1410 µM [inhibitor, partial curve, poor fit]"
CC(=O)c1c(N2CCN(c3ccc(F)cc3)CC2)nc(=S)n(Cc2ccccc2)c1C,–,"inconclusive: 70.8 µM [inhibitor, single point]"
CC(C)(C)c1ccc(C(=O)NCCC(=O)Nc2ccc3c(c2)OCCO3)cc1,–,"inconclusive: 100 µM [inhibitor, single point]"
COC(=O)c1ccc(NC(=O)c2cc(-c3ccncc3)nc3ccccc23)cc1,inactive: -2.22%,–
O=C1C=C(NCc2ccc(Cl)cc2)CC(c2ccco2)C1 (centres undefined),–,"inconclusive: 100 µM [inhibitor, single point]"
CCCCC(=O)Nc1cc(C)c(NC(=O)c2ccco2)cn1,–,"inconclusive: 100 µM [inhibitor, single point]"
O=C(COc1ccccc1O)c1cccs1,inactive: 0.285%,–
CC1(CCc2ccccc2)NC(=S)N(c2ccc(Cl)cc2)N1 (centres undefined),inactive: 1.81%,–
CCOC(=O)c1sc(-c2ccccc2)cc1NC(=O)CSc1nnnn1C,–,"inconclusive: 89.1 µM [inhibitor, single point]"
Cn1c(=O)c2c(nc(Oc3ccccc3)n2C)n(C)c1=O,–,"inconclusive: 20 µM [inhibitor, single point]"
CNC(=S)N1N=C(c2ccc(OC)cc2)CC1c1ccccc1Cl (centres undefined),–,"inconclusive: 200 µM [inhibitor, partial curve, poor fit]"
O=C(NCc1ccco1)c1cccc2c1C(=O)c1ccc(N3CCC(Cc4ccccc4)CC3)cc1S2(=O)=O,–,"inconclusive: 14.1 µM [inhibitor, single point]"
N#CC1=C(N)SC(N)=C(C#N)C1c1cccc(Oc2ccccc2)c1,–,"inconclusive: 56.2 µM [inhibitor, single point]"
CC(=O)N1CCC(N(CCN2CCOCC2)C(=S)Nc2c(C)cccc2C)CC1,–,"inconclusive: 22.4 µM [inhibitor, single point]"
COc1cccc(CNC(=O)c2cccc(Br)c2)c1,–,"inconclusive: 50.1 µM [inhibitor, single point]"
O=[N+]([O-])CC(=Nc1ccc(F)cc1)N/N=C\c1oc(O)c2ccccc12,–,"inconclusive: 200 µM [inhibitor, partial curve, poor fit]"
N#Cc1c(NC(=O)CCC(=O)O)sc2c1CCCC2,inactive: 1.47%,–
COc1cccc(C(=O)Nc2nc3ccccc3[nH]2)c1,inactive: 0.788%,–
O=C(OCC(=O)c1cccs1)c1ccc(NC(=O)c2ccco2)cc1,–,"inconclusive: 89.1 µM [inhibitor, single point]"

SMILES,"activity, negative = inhibition",Potency
CSc1nc2sc3c(c2c(=O)[nH]1)CCC3,–,"inconclusive: 12.6 µM [inhibitor, single point]"
O=C(CSc1nnc(CNC(=O)c2ccccc2)o1)NCc1ccccc1Cl,–,"inconclusive: 100 µM [inhibitor, single point]"
COc1ccc(C)cc1NC(=O)CN1CCN(S(=O)(=O)c2ccc(C(C)C)cc2)CC1,–,"inconclusive: 70.8 µM [inhibitor, single point]"
O=C(OC[C@H]1O[C@@H](OC(=O)c2cc(O)c(O)c(OC(=O)c3cc(O)c(O)c(O)c3)c2)[C@H](OC(=O)c2cc(O)c(O)c(OC(=O)c3cc(O)c(O)c(O)c3)c2)[C@@H](OC(=O)c2cc(O)c(O)c(OC(=O)c3cc(O)c(O)c(O)c3)c2)[C@@H]1OC(=O)c1cc(O)c(O)c(OC(=O)c2cc(O)c(O)c(O)c2)c1)c1cc(O)c(O)c(OC(=O)c2cc(O)c(O)c(O)c2)c1,–,"inconclusive: 31.6 µM [inhibitor, partial curve, poor fit]"
COc1cc(OC)cc(-c2c(C#Cc3ccsc3)c3cc(-c4ccc(C(N)=O)cc4)ccc3n2C)c1,–,"inconclusive: 316 µM [inhibitor, partial curve, poor fit]"
CC(=O)Nc1cc2ccccc2oc1=O,–,"inconclusive: 14.1 µM [inhibitor, single point]"
Cc1ccc(N2CC(C(=O)N3CCOCC3)CC2=O)cc1Cl (centres undefined),–,"inconclusive: 22.4 µM [inhibitor, single point]"
c1cc2c(cnc3cscc32)s1,–,"inconclusive: 89.1 µM [inhibitor, partial curve]"
CCC(C)Nc1nc(C)nc2c1oc1ccccc12 (centres undefined),–,"inconclusive: 15.8 µM [inhibitor, single point]"
COc1ccccc1C1CC(c2ccccc2)=NN1C(=S)Nc1ccccc1 (centres undefined),–,"inconclusive: 79.4 µM [inhibitor, partial curve, poor fit]"
COC(=O)[C@H](C)NC(=O)Nc1cccc(Br)c1,inactive: -1.48%,–
CCCCNC(=O)NNC(=O)C1CC1(c1ccccc1)c1ccccc1 (centres undefined),–,"inconclusive: 5.62 µM [inhibitor, single point]"
CCCCNC(=S)N(C)/N=C/c1c(F)cccc1F,inactive: -0.704%,–
O=C(NC1CCCCC1)N(CCN1CCOCC1)Cc1cc2cc3c(cc2[nH]c1=O)OCCO3,inactive: -0.0102%,–
CCC(=O)NC(=S)Nc1ccc(S(=O)(=O)NC2CCCCC2)cc1,–,"inconclusive: 15.8 µM [inhibitor, single point]"
COc1ccc(C(=O)Nc2nnc(Cc3cccs3)s2)cc1OC,–,"inconclusive: 112 µM [inhibitor, partial curve, poor fit]"
O=C(CSc1nc(-c2ccccc2F)nc2nc[nH]c12)Nc1c(Cl)cc(Cl)cc1Cl,–,"inconclusive: 112 µM [inhibitor, single point]"
O=C(COC(=O)CCC(NC(=O)OCc1ccccc1)C(=O)OCC(=O)Nc1ccccc1)Nc1ccccc1 (centres undefined),–,"inconclusive: 63.1 µM [inhibitor, single point]"
N#Cc1c(Cl)nsc1NN,inactive: -1.73%,–
COC(=O)Cn1ccc2cc(S(=O)(=O)N3CCCCC3)ccc21,–,"inconclusive: 89.1 µM [inhibitor, single point]"
COc1ccc(/C=C2/C(=O)N(c3ccccc3)N=C2C)cc1Br,–,"inconclusive: 63.1 µM [inhibitor, single point]"
CCOc1ccc(S(=O)(=O)Nc2nc3ccccc3nc2-n2ccc(=NC(=O)c3ccccc3C)cc2)cc1,–,"inconclusive: 44.7 µM [inhibitor, partial curve, poor fit]"
COC(=O)c1cccc(NC(=O)Cc2ccsc2)c1,–,"inconclusive: 63.1 µM [inhibitor, single point]"
